Source: the odorant receptor screen of Mainland et al. (2015)
Several values for one entry are separate records, joined by “and”; a condition that tells them apart may be missing. Identical values can stand only once. The list shows a part of the results. Single wells; the ratio to wells without odorant was worked out here, and repeats agree poorly.

Assays:
Assay in all cases: odorant receptor activation (CRE luciferase / Renilla) (fold of no-odor wells); higher = more activation
Details in all cases: 100 µM
[1] = tested on: OR2F2 A98V clone 1087
[2] = tested on: OR2G2 P24A/V120L/R236G clone 1349
[3] = tested on: OR2G2 clone 1385
[4] = tested on: OR2G3 clone 1328
[5] = tested on: OR2G3 clone 1382
[6] = tested on: OR2G6 clone 1487
[7] = tested on: OR2H1 clone 1393
[8] = tested on: OR2H2 L30F/A48V clone 1061
[9] = tested on: OR2H2 clone 1066
[10] = tested on: OR2J2 T111A clone 1073
[11] = tested on: OR2J2 Y74H/T111A/V146A/T218A clone 1402
[12] = tested on: OR2J2 clone 1403
[13] = tested on: OR2J2 clone 1404
[14] = tested on: OR2J3 I228V/M261I clone 1616
[15] = tested on: OR2K2 clone 1340
[16] = tested on: OR2K2 clone 1450
[17] = tested on: OR2L13 clone 1481
[18] = tested on: OR2L2 clone 1465
[19] = tested on: OR2L3 clone 1526
[20] = tested on: OR2L5 clone 1697

| SMILES | odorant receptor activation [1] | odorant receptor activation [2] | odorant receptor activation [3] | odorant receptor activation [4] | odorant receptor activation [5] | odorant receptor activation [6] | odorant receptor activation [7] | odorant receptor activation [8] | odorant receptor activation [9] | odorant receptor activation [10] | odorant receptor activation [11] | odorant receptor activation [12] | odorant receptor activation [13] | odorant receptor activation [14] | odorant receptor activation [15] | odorant receptor activation [16] | odorant receptor activation [17] | odorant receptor activation [18] | odorant receptor activation [19] | odorant receptor activation [20] |
| --- | --- | --- | --- | --- | --- | --- | --- | --- | --- | --- | --- | --- | --- | --- | --- | --- | --- | --- | --- | --- |
| c1ccc(Oc2ccccc2)cc1 [diphenyl ether] | 1.04 | 0.851 | 1.06 | 0.869 | 0.907 | 1.03 | 1.02 | 1.17 | 0.957 | 0.902 | 1.19 | 1.12 | 1.32 | 1.47 | 0.954 | 1.03 | 1.09 | 1.37 | 0.88 | 0.818 |
| O=CCc1ccccc1 [phenyl acetaldehyde] | 0.776 | 1.28 | 1.88 | 1.37 | 1.94 | 1.44 | 1.42 | 1.18 | 1.59 | 1.35 | 1.11 | 1.45 | 1.88 | 1.47 | 0.885 | 1.16 | 1.24 | 1.61 | 0.997 | 2.34 |
| CC12CCC(C1)C(C)(C)C2=O (stereo not given) [fenchone] | 1.1 | 0.908 | 1.08 | 0.971 | 0.935 | 1.05 | 1.06 | 1.15 | 0.97 | 0.948 | 0.949 | 0.944 | 1.1 | 1.03 | 1.07 | 0.931 | 1.31 | 1.09 | 1.05 | 0.834 |
| C=CCc1ccc(OC)c(OC)c1 [eugenol methyl ether] | 1.34 | 1.34 | 1.81 | 1.44 | 1.39 | 1.36 | 1.78 | 1.51 | 1.34 | 2.33 | 1.81 | 1.4 | 2.76 | 1.77 | 1.59 | 1.55 | 1.41 | 1.33 | 1.44 | 0.864 |
| CCCCCOC(C)=O [n-amyl acetate] | 1.57 | 0.578 and 0.695 | 0.885 | 0.445 | 0.72 | 1 and 1.03 | 0.914 | 1.59 | 1.11 | 1.97 | 0.748 | 0.981 | 0.737 | 0.662 | 0.756 | 0.658 and 0.845 | 0.678 and 0.989 | 0.507 and 0.972 | 0.734 and 0.856 | 1.01 |
| CCCCCCCOC(C)=O [heptyl acetate] | 1.12 | 2.08 and 0.968 | 1.14 | 0.833 and 0.962 | 0.92 | 0.962 and 1.05 | 1.17 | 0.723 | 0.902 | 1.12 | 0.958 | 0.872 | 1.3 | 1.2 | 0.933 and 1.07 | 1.14 | 0.926 and 1.11 | 0.934 and 1.3 | 0.708 and 1.17 | 0.695 |
| c1cnccn1 [pyrazine] | 0.731 | 0.828 | 1.02 | 0.844 | 1.3 | 0.788 | 0.957 | 1.11 | 1.35 | 1.04 | 0.973 | 1.31 | 1.36 | 1.27 | 0.74 | 1.07 | 0.745 | 1 | 0.683 | 0.958 |
| CCCCCCCC=CC=O [2-decenal] | 38.1 | 0.968 | 2.7 | 0.984 | 2.03 | 1.25 | 2.16 | 4.07 | 6.18 | 2.46 | 1.15 | 1.07 | 2.09 | 0.92 | 0.38 | 0.889 | 1.12 | 1.86 | 2.04 | 0.974 |
| CCCCO [1-butanol] | 18.2 | 1.25 | 1.65 | 0.987 | 2.17 | 0.881 | 1.11 | 2.92 | 3.42 | 1.99 | 0.73 | 0.564 | 1.19 | 1.75 | 0.347 | 0.961 | 1.02 | 1.04 | 1.11 | 0.72 |
| COc1cc(C=O)ccc1O [vanillin] | 0.75 | 1.06 | 1.09 | 0.991 | 1.15 | 0.949 | 0.899 | 0.911 | 0.968 | 2.14 | 0.823 | 0.995 | 2.91 | 0.97 | 0.8 | 0.797 | 0.924 | 1.01 | 0.815 | 1.01 |
| CCCCCCCC=O [octyl aldehyde] | 1.03 | 1.01 | 0.908 | 1.13 | 0.905 | 0.814 | 0.868 | 1.08 | 1.3 | 1.17 | 0.769 | 0.756 | 0.97 | 1.62 | 1.03 | 0.782 | 0.943 | 1.04 | 0.969 | 0.818 |
| COC(=O)c1ccccc1O [methyl salicylate] | 0.996 | 0.906 | 1.01 | 0.82 | 1.18 | 0.928 | 1.01 | 1.3 | 1.19 | 1.03 | 1.12 | 1.16 | 1.43 | 1.01 | 0.809 | 1.04 | 0.8 | 0.985 | 1.02 | 0.846 |
| CC1CCC(C(C)C)C(O)C1 (single isomer, unassigned; (-)) [(-)-menthol] | 18.4 | 0.865 | 1 | 0.729 | 0.832 | 2.5 | 0.476 | 2.53 | 4.91 | 2.09 | 0.676 | 0.803 | 0.849 | 1.8 | 0.225 | 1.21 | 1.53 | 3.44 | 3.65 | 0.74 |
| CCC1(O)C2(C)CCC(C2)C1(C)C (stereo not given) [2-ethylfenchol] | 13.9 | 0.914 | 1.41 | 0.754 | 0.657 | 1.25 | 1.26 | 1.96 | 4.73 | 1.97 | 0.549 | 0.401 | 0.913 | 1.1 | 0.481 | 0.627 | 1.2 | 1.27 | 1.34 | 0.774 |
| CC(C)CCC(=O)O [4-methylvaleric acid] | 10.3 | 0.933 | 1.44 | 0.741 | 1.4 | 0.931 | 1.49 | 1.67 | 2.35 | 1.01 | 2 | 0.84 | 1.49 | 1.04 | 0.781 | 1.01 | 0.976 | 0.959 | 1.15 | 0.733 |
| CC(=O)OCC=C(C)CCC=C(C)C [geranyl acetate] | 1.03 | 2.22 and 1.17 | 1.27 | 0.606 and 0.769 | 1.13 | 0.999 and 1.28 | 1.09 | 1.17 | 2.45 | 1.42 | 1.07 | 1.16 | 1.59 | 1.59 | 1.38 and 1.06 | 1.36 | 1.12 and 1.26 | 1.12 and 1.64 | 0.93 and 1.52 | 1.35 |
| C=CC(C)(O)CCC=C(C)C (stereo not given) [linalool] | 1.03 | 0.759 | 0.903 | 0.871 | 0.963 | 0.749 | 1.11 | 1.11 | 1.3 | 1.03 | 0.876 | 0.979 | 0.839 | 1 | 0.836 | 0.959 | 0.736 | 1.08 | 1.02 | 0.817 |
| CCCCCCOC(=O)CCC [hexyl butyrate] | 0.825 | 1.13 and 1.19 | 0.987 | 1.45 and 0.915 | 0.868 | 1.43 and 0.896 | 0.962 | 0.569 | 0.843 | 1.11 | 0.747 | 0.852 | 0.802 | 1.11 | 1.12 and 0.671 | 0.943 | 0.816 and 0.933 | 1.29 and 0.979 | 1.2 and 0.925 | 1.03 |
| C=C(C)C1CC=C(C)C(=O)C1 (stereo not given) [r-carvone] | 0.698 | 0.813 | 1.23 | 0.852 | 1.59 | 0.982 | 1.01 | 0.893 | 1.04 | 1.01 | 1.07 | 1.37 | 1.53 | 1.34 | 0.613 | 0.937 | 1.01 | 0.903 | 1.06 | 0.989 |
| CCCC(=O)O [butyric acid] | 1.3 | 0.804 | 0.13 | 0.832 | 0.268 | 1.15 | 0.186 | 1.13 | 1.27 | 1.12 | 0.303 | 0.311 | 0.356 | 0.999 | 0.765 | 0.198 | 0.9 | 1.24 | 0.974 | 0.86 |
| CCCCCCCCCC=O [decyl aldehyde] | 1.28 | 1.44 | 1.47 | 1.21 | 1.11 | 0.917 | 1.42 | 1.05 | 1.06 | 1.1 | 1.32 | 1.58 | 1.76 | 3.47 | 1.24 | 1.5 | 1.57 | 0.986 | 1.01 | 0.825 |
| COc1cc(C)ccc1O [2-methoxy-4-methylphenol] | 12.2 | 0.861 | 1.53 | 0.893 | 1.08 | 0.778 | 0.996 | 1.27 | 2.37 | 2.42 | 0.979 | 0.591 | 3.93 | 1.38 | 0.877 | 0.99 | 0.899 | 0.893 | 1 | 0.87 |
| CC1CCC(C(C)C)C(O)C1 (single isomer, unassigned; (+)) [(+)-menthol] | 18.7 | 1 | 1.71 | 0.753 | 1.21 | 0.91 | 1.34 | 3.15 | 4.53 | 1.79 | 0.591 | 0.492 | 1.13 | 1.61 | 0.266 | 0.935 | 1.17 | 0.989 | 1.21 | 0.658 |
| CC(C)C=O [isobutyraldehyde] | 1.15 | 1.2 | 0.921 | 1.46 and 1.1 | 0.819 | 0.866 and 1.06 | 0.852 | 0.749 | 1.34 | 1.23 | 0.839 | 0.703 | 0.686 | 0.65 | 0.891 and 0.761 | 1.05 | 1.15 and 1.03 | 0.979 and 1.13 | 0.852 and 1.01 | 0.72 |
| C=CCSCC=C [diallyl sulfide] | 1.04 | 0.974 | 1.08 | 1.04 | 1.12 | 1.01 | 1.23 | 1 | 0.969 | 0.884 | 1.18 | 1.07 | 1.07 | 1.34 | 1.04 | 1.17 | 1.13 | 1.33 | 1.35 | 0.834 |
| CC(=O)C(C)=O [diacetyl] | 1.25 | 1.14 | 1.23 | 1.04 | 1.5 | 1.25 | 1.37 | 1.11 | 1.1 | 1.05 | 1.26 | 1.06 | 1.41 | 1.51 | 0.909 | 1.29 | 1.33 | 1.45 | 1.18 | 0.782 |
| CC(C)C(=O)O [isobutyric acid] | 0.807 | 1.3 and 1.08 | 0.856 | 1.38 and 0.995 | 0.72 | 1.04 and 0.824 | 0.776 | 0.704 | 0.815 | 1.19 | 0.763 | 0.722 | 0.672 | 0.789 | 1.08 and 0.877 | 0.815 | 1.16 and 0.955 | 1.05 and 0.795 | 0.977 and 0.777 | 0.834 |
